The test in a line: qHTS Assay for Lipid Storage Modulators in Drosophila S3 Cells.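 On cell number change: cells counted by Cell Tracker Red CMTPX staining in the red channel.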 The note with it: BODIPY lipid droplet fluorescence, 18-24 h; for cell number change: measured here: cell count max response, cells fed with added oleic acid; for AC50: measured here: lipid fluorescence (Fed channel) AC50, cells fed with added oleic acid. Put shortly:
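Drosophila S3 cells loaded with oleic acid (400 uM, as added) and compounds at several concentrations; lipid droplets imaged by 488-nm laser-scanning cytometry, 500–530 nm intensity and object ratio to cell channel. Percent activity normalized to 20 uM Triacsin C.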

Structures are written as SMILES. The list shows a part of the results. The main result of the screen is listed elsewhere. These columns were measured beside it and carry no call. The list favours compounds with an active or inconclusive main result. The note in brackets gives the kind of curve behind each potency; many fits are weak.

What is called AC50 is the concentration at which the activity in the assay is half-maximal. A low value points to activity at low concentration. Regarding `O=C(COc1ccc(Cl)cc1)Nc1cc(NC(=O)COc2ccc(Cl)cc2)cc(C(=O)O)c1`, the cell number change worked out at 2.65% and the AC50 was 20.6 µM [rising, partial curve].

Take `COc1cc(NS(=O)(=O)c2ccc(NC(=S)NC(=O)c3sc4ccccc4c3Cl)cc2)nc(OC)n1`: the cell number change is -11% and the AC50 is 20.6 µM [falling, single point].

The record behind these values is PubChem BioAssay AID2685 (National Center for Advancing Translational Sciences (NCATS), 2010).
